{"source": "PubChem BioAssay AID1224830 (NIAID, 2016)", "assay": "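Host factors that control LPS-induced TNF expression in human macrophages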 (primary screen)", "system": "human THP-1 monocytic leukaemia cells, TNF dual-luciferase reporter clone, PMA-differentiated to macrophage-like cells", "knock-down reagent": "siRNA pool against human genes, 50 nM", "timing": "LPS for 4 h, given about 3 days after siRNA transfection", "conditions": "bacterial LPS (TLR4 ligand), 10 ng/ml", "detection": "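Ratio of firefly to renilla light, scaled to the plate median and expressed as a robust z-score per replicate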", "reading the numbers": "TNF reporter robust z-score: higher = stronger TNF reporter response to LPS", "call rule": "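Each well counts as active if its z-score is over 2.8 or under -1.5; controls are left without a call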", "note": "Here is an unselected part of about 18,000 deposited reagents. In the full data, about 2,900 (16%) were called active. 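Calls are made per well; low scores hint the gene aids the LPS response, high scores that it dampens it.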 Repeated entries: four replicate wells of each siRNA pool."}
The first 2 entries, ahead of the listing:
{"gene":"TIGD7 (tigger transposable element derived 7)","TNF reporter robust z-score":1.12,"Call":"inactive"}
{"gene":"TIGD7 (tigger transposable element derived 7)","TNF reporter robust z-score":6.61,"Call":"active"}

Main list, repeating the preview:
{"gene":"TIGD7 (tigger transposable element derived 7)","TNF reporter robust z-score":1.12,"Call":"inactive"}
{"gene":"TIGD7 (tigger transposable element derived 7)","TNF reporter robust z-score":6.61,"Call":"active"}
{"gene":"TIGD7 (tigger transposable element derived 7)","TNF reporter robust z-score":1.84,"Call":"inactive"}
{"gene":"TIGD7 (tigger transposable element derived 7)","TNF reporter robust z-score":1.08,"Call":"inactive"}
{"gene":"TMCC2 (transmembrane and coiled-coil domain family 2)","TNF reporter robust z-score":1.98,"Call":"inactive"}
{"gene":"TMCC2 (transmembrane and coiled-coil domain family 2)","TNF reporter robust z-score":2.79,"Call":"inactive"}
{"gene":"TMCC2 (transmembrane and coiled-coil domain family 2)","TNF reporter robust z-score":0.05,"Call":"inactive"}
{"gene":"TMCC2 (transmembrane and coiled-coil domain family 2)","TNF reporter robust z-score":-0.73,"Call":"inactive"}
{"gene":"MXD4 (MAX dimerization protein 4)","TNF reporter robust z-score":-0.45,"Call":"inactive"}
{"gene":"MXD4 (MAX dimerization protein 4)","TNF reporter robust z-score":0.64,"Call":"inactive"}
{"gene":"MXD4 (MAX dimerization protein 4)","TNF reporter robust z-score":-0.69,"Call":"inactive"}
{"gene":"MXD4 (MAX dimerization protein 4)","TNF reporter robust z-score":-0.97,"Call":"inactive"}
{"gene":"MAF (MAF bZIP transcription factor)","TNF reporter robust z-score":1.73,"Call":"inactive"}
{"gene":"MAF (MAF bZIP transcription factor)","TNF reporter robust z-score":1.15,"Call":"inactive"}
{"gene":"MAF (MAF bZIP transcription factor)","TNF reporter robust z-score":-0.28,"Call":"inactive"}
{"gene":"MAF (MAF bZIP transcription factor)","TNF reporter robust z-score":0.32,"Call":"inactive"}
{"gene":"MED13L (mediator complex subunit 13L)","TNF reporter robust z-score":0.7,"Call":"inactive"}
{"gene":"MED13L (mediator complex subunit 13L)","TNF reporter robust z-score":1.37,"Call":"inactive"}
{"gene":"MED13L (mediator complex subunit 13L)","TNF reporter robust z-score":-0.03,"Call":"inactive"}
{"gene":"MED13L (mediator complex subunit 13L)","TNF reporter robust z-score":0.32,"Call":"inactive"}
